# Test results: patent US10011813B2, “Methane oxidation methods and compositions” (California Institute of Technology, priority 2015, dated 2018)
# At least one structure is not confirmed: it was looked up by name or label, or the drawing left a doubt. Some of these results come from one statement about several compounds together.
# Key:
# [1] = cited from earlier work
# [2] = system: methane seep sediment (ANME archaea); test: AOM rate measurement via 13C-methane (newly formed DIC) in methane seep sediment incubations; assay type: cell-based, ANME-2a and ANME-2c; settings: sulfate-free incubations
# Source text: General description of methane oxidation measurements via ^13C-methane. Methane oxidation was quantified by determining the production of inorganic carbon (“CO2”). Accurate quantification of the concentration of inorganic carbon formed from methane oxidation is challenging due to 4 main reasons:
# A defined amount of added DIC in artificial, buffered seawater was used with a low calcium concentration to prevent carbonate precipitation (see medium composition). As ^13CH4 was the only ^13C-enriched carbon source added, the newly formed ^13C-DIC must be derived from methane. […]
# The 1 L pyrex bottle with the sediment in the sulfate-free medium (1 part wet sediment in 3 parts of slurry volume) was vigorously shaken each time and 3.0 mL of slurry immediately removed and injected into the individual serum bottles. […] The exact fractional abundance of ^13C in the methane was quantified via ^1H-NMR spectroscopy for individual incubations.
# AOM rate measurements (quantification of newly formed DIC based on ^13CH4). […] The resulting CO2 was analyzed for the isotopic enrichment (^13F(tn)) on a GC-IR-MS GasBench II (Thermo Scientific). The amount of DIC newly formed (Δ[DIC](tn), see FIG. 6B) was calculated from the measured ^13F (fractional abundance of ^13C), neglecting isotope effects on AOM according to Equation (1): Δ[DIC](tn)=[DIC](t0)*(^13F(tn)−^13F(t0))/(^13F(CH4)−^13F(tn)) (EQ. 1)
smiles,measurement,setting,value
"O=C1c2cccc(S(=O)(=O)O)c2C(=O)c2cccc(S(=O)(=O)O)c21 [1,5-AQDS, 9,10-anthraquinone-1,5-disulfonate]",E°′,[1],−175 mV
same,rate of stimulated anaerobic oxidation of methane without sulfate,[2],at least 0.1 mmol cm^−3 day^−1
